No constants are given. Whether binding was seen depends on the method and setting. Some entries that bind do so weakly or less than the wild type. For some of these results: Where a sequence is shown, tags or fusion partners need not be part of it.
T1: C-terminally StrepII-tagged ABIN-2 (A20-binding inhibitor of NF-κB 2) (UniProt Q8NFZ5)
T1 sequence: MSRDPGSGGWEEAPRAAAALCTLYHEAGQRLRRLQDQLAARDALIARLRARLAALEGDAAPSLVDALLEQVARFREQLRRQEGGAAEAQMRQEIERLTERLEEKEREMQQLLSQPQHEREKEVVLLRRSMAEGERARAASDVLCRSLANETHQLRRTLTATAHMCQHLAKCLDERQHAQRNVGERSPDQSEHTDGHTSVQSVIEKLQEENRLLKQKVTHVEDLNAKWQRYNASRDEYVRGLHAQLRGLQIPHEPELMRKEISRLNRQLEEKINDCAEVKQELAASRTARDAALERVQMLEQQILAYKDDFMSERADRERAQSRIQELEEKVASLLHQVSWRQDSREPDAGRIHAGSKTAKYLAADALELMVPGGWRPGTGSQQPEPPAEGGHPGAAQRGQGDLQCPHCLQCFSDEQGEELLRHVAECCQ

The chains behind the UniProt entries cited, without tags or fusion partners. Where a name states a change or a piece, a line headed by the entry shows the natural chain unless it says otherwise.
UniProt P41279: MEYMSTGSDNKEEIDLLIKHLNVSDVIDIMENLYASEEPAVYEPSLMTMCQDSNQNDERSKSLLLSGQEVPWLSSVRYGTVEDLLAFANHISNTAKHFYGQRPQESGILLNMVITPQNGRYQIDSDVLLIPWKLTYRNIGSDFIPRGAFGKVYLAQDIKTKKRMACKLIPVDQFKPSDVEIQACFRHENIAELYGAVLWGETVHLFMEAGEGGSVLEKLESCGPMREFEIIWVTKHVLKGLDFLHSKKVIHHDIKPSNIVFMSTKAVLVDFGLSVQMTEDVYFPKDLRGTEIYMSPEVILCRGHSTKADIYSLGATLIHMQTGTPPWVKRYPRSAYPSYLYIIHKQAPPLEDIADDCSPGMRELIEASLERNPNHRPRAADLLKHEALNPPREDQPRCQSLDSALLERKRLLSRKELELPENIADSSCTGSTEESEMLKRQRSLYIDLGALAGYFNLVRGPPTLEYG
UniProt P19838: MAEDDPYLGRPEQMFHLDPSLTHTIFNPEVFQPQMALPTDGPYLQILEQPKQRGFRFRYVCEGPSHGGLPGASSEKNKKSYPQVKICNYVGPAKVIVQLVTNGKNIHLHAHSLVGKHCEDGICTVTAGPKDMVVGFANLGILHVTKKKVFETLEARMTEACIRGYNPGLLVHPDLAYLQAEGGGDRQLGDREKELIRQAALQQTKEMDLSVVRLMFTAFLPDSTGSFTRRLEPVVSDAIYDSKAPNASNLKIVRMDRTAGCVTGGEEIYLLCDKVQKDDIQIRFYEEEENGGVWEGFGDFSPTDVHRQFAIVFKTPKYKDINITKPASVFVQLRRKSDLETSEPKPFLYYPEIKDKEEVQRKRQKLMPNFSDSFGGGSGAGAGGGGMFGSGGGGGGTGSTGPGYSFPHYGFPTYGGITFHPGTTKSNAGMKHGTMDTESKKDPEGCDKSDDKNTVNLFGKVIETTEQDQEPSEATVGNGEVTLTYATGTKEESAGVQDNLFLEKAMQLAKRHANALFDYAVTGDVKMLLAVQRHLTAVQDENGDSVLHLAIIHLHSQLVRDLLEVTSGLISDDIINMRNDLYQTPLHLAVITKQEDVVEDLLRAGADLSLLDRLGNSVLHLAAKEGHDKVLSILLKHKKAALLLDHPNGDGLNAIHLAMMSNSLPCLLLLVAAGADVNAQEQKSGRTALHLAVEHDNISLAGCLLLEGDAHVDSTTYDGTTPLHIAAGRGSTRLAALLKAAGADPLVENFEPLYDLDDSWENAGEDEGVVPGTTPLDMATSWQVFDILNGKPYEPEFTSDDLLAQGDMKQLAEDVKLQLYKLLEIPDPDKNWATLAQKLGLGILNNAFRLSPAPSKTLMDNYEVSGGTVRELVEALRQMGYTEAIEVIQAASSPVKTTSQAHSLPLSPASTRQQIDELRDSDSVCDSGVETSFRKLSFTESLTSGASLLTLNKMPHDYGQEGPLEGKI


Tests used:
Assay in all cases: SEC
[1] = target: recombinant His6–TPL-2–ABIN-2–StrepII–HA–p105 complex (UniProt P41279)
[2] = target: T1, C-terminally StrepII-tagged ABIN-2 (A20-binding inhibitor of NF-κB 2)
[3] = target: His6-tagged TPL-2 (tumour progression locus 2) (human) (UniProt P41279)

| Molecule | binding [1] | binding [2] | binding [3] |
| --- | --- | --- | --- |
| NF-κB1 p50 (from UniProt P19838 1-433) | binds |  |  |
| HA (haemagglutinin)-tagged NF-κB1 p105 (from UniProt P19838 1-968) |  | binds | binds |
| C-terminally StrepII-tagged ABIN-2 (A20-binding inhibitor of NF-κB 2) (protein, UniProt Q8NFZ5-1 1-429) MSRDPGSGGWEEAPRAAAALCTLYHEAGQRLRRLQDQLAARDALIARLRARLAALEGDAAPSLVDALLEQVARFREQLRRQEGGAAEAQMRQEIERLTERLEEKEREMQQLLSQPQHEREKEVVLLRRSMAEGERARAASDVLCRSLANETHQLRRTLTATAHMCQHLAKCLDERQHAQRNVGERSPDQSEHTDGHTSVQSVIEKLQEENRLLKQKVTHVEDLNAKWQRYNASRDEYVRGLHAQLRGLQIPHEPELMRKEISRLNRQLEEKINDCAEVKQELAASRTARDAALERVQMLEQQILAYKDDFMSERADRERAQSRIQELEEKVASLLHQVSWRQDSREPDAGRIHAGSKTAKYLAADALELMVPGGWRPGTGSQQPEPPAEGGHPGAAQRGQGDLQCPHCLQCFSDEQGEELLRHVAECCQ |  |  | binds |

From paper PMC3727213
